We go through 1 sequence from article doi:10.1101/2024.06.04.597356.

Construct, isoform or probe ends are uncertain for at least one entry.

The data set concerns GST-TaCSP-H1 (D sub-genome + = AetHap1) (Triticum aestivum). Briefly: molecular beacon unfolding. As to conditions: 1 mM Mg2+, melting read-out, indirect binding.

Consider “AGGGTTCTTTGTGGTGTTTTTATCTGTGCTTCCCTATGCACCGCCGACGACAGTCGCTAACCTCTCGCTAAGAACCCT [78-nt molecular beacon]”, for which the binding result is “binds”.
